Reference: patent publication US20010016568A1, “NOVEL METAL COMPLEXES” (priority 1997, published 2001)
Some entries share one result that the patent states for a list of compounds. At least one structure is not confirmed: it was looked up by name or label, or the drawing left a doubt.

Molecular target: T1, G-CSF receptor (Mus musculus, UniProt P40223)
T1 construct: they express endogenous G-CSF receptors; endogenous in cells; host or cells: NFS60 murine myeloid cells carrying a G-CSF-responsive luciferase reporter
T1 sequence (P40223 26-837): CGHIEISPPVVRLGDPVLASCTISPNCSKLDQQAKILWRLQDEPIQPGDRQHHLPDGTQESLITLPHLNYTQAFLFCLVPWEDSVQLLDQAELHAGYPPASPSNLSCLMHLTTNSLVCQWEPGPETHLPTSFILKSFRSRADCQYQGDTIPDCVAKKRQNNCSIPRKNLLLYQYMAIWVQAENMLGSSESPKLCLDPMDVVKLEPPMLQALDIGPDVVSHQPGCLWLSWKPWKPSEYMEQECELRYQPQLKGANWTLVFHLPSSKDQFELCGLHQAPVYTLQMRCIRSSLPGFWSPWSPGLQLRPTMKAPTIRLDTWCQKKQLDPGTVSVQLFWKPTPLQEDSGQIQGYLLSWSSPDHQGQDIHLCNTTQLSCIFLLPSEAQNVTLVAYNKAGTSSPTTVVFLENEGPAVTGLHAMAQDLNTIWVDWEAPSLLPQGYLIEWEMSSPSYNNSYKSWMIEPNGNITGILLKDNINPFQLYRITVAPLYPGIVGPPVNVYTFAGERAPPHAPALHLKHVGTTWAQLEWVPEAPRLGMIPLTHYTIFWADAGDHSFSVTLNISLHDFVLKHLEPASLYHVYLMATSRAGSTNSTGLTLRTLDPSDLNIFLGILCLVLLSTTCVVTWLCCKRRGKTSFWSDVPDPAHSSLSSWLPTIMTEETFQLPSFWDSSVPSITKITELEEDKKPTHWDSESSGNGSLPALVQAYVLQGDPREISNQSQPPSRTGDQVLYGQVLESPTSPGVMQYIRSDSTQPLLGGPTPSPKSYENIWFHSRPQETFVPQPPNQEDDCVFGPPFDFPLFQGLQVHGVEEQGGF
Assay: Luciferase reporter gene assay on G-CSF-responsive NFS60 cell line
Assay type: cell-based, murine
Details: concentration range of 1 to 100 micromolar

[Zn+2].c1ccc(C23NC(=Nc4nc5ccccc5[nH]4)NC2(c2ccccn2)NC(=Nc2nc4ccccc4[nH]2)N3)nc1.c1ccc(C23NC(=Nc4nc5ccccc5[nH]4)NC2(c2ccccn2)NC(=Nc2nc4ccccc4[nH]2)N3)nc1 (stereo not shown) [Compound 1, Bis{2,5-bis[2-benzimidazolylimino]-3a,6a-bis(2-pyridyl)-1,2,3,3a,4,5,6,6a-octahydroimidazo[4,5-d]imidazole-N,N′}-zinc(II)]
activation in the luciferase assay, % of control: above 150 % of control
